Test results taken from US20100261711A1, “SELECTIVE ANTICONVULSANT AGENTS AND THEIR USES” (WiSys Technology Foundation, priority 2009, published 2010).

Key:
[1] = test system: Metrazol-induced clonic seizures; conditions: Mice IP; from Antiepileptic Drugs, 5th ed., Levy et al., 2002; cited from earlier work
[2] = test system: Metrazol-induced clonic seizures; test: Subcutaneous Metrazol test (scMet), mice; format: in vivo; conditions: Mice IP
Description: (§1) The benzodiazepine derivative compounds selective for GABAa receptor subunits were tested for the ability to suppress seizures in several standard rat and mouse models of epilepsy. […] The standard models incorporated into anticonvulsant screening include the maximal electroshock test (MES), the subcutaneous Metrazol test (scMet), and evaluations of toxicity (TOX). The data for each condition is presented as a ratio of either the number of animals protected or toxic (loss of locomotor activity) over the number of animals tested at a given time point and dose.
(§2) Subcutaneous injection of the convulsant Metrazol produces clonic seizures in laboratory animals. […] Animals are pretreated with various doses of the test compound (in a similar manner to the MES test, although a dose of 50 mg/kg (po) is the standard for Test 2 scMet). At the previously determined TPE of the test compound, the dose of Metrazol which will induce convulsions in 97% of animals (CD97: 85 mg/kg mice) is injected into a loose fold of skin in the midline of the neck. […] An episode of clonic spasms, approximately 3-5 seconds, of the fore and/or hindlimbs, jaws, or vibrissae is taken as the endpoint.

[3] = test system: Metrazol-induced clonic seizures; test: Subcutaneous Metrazol test (scMet), rats; format: in vivo; conditions: Rat PO
Description: as §1, §2

[4] = test system: Pilocarpine-induced Status; test: Pilocarpine-induced status; format: in vivo, rats; conditions: weight change 24 hours post seizure
[5] = 600 mg/kg, 0 Hrs post first Stage III seizure
[6] = 1,000 mg/kg, 0.5 Hrs post first Stage III seizure

SMILES | TI TD50/ED50 (scMet) [1] | TI TD50/ED50 (scMet) [2] | TI TD50/ED50 (scMet) [3] | other results
O=C1NC(=O)C(c2ccccc2)(c2ccccc2)N1 [Phenytoin] | <0.82 | – | – | –
C#Cc1ccc2c(c1)C(c1ccccc1Cl)=NCc1nnc(C)n1-2 [XLi-JY-DMH (23), 8-Acetyleno-5-(2′-chlorophenyl)-1-methyl-4H-s-triazolo-[4,3-a]-1,4-benzodiazepine] | – | 2.9 | > 105 | –
O=C1CN=C(c2ccccc2Cl)c2cc([N+](=O)[O-])ccc2N1 [Clonazepan] | 13 | – | – | –
C#Cc1ccc2c(c1)C(c1ccccc1)=N[C@H](C)c1nnc(C)n1-2 [SH-TR-CH3 (146), (4R)-8-Ethynyl-1,4-dimethyl-6-phenyl-4H-benzo[f][1,2,4]triazolo[4,3-a][1,4]diazepine] | – | – | – | Avg. Weight Change ± SEM, Non-Protected Rats [4, 5]: -13.3 ± 1.0 g; Avg. Weight Change ± SEM, Protected Rats [4, 5]: -5.0 ± 4.8 g; Avg. Weight Change ± SEM, Non-Protected Rats [4, 6]: -19.0 ± 0.8 g; Avg. Weight Change ± SEM, Protected Rats [4, 6]: +5.0 ± 0.0 g
C#Cc1ccc2c(c1)C(c1ccccc1F)=NCc1c(C(=O)OCC)ncn1-2 [JY-XHe-053 (15), Ethyl-8-acetyleno-6-(2′-fluorophenyl)-4H-benzo[f]imidazo[1,5-a][1,4]diazepine-3-carboxylate] | – | 44 and >44 | >21 | –

Where “and” joins values, the source holds several entries; their conditions need not be identical. Equal values may be shown once. Read-outs that look alike come from different tables or passages of the source.
